Laboratory results published in article doi:10.1101/2023.08.13.546412 (bioRxiv, 2023).
Results are given in words; binding and its absence hold for the method and conditions named. For part of these data: Binding calls can cover weak binding; strength is not graded here. Sequences can lack the tags named with a protein. For part of these data: In cells and extracts the contact can be indirect. Values belong to the molecule of their own block, whether it stands above or below them.

Key:
[1] = target: T1, WOX5-YFPN (WUSCHEL-RELATED HOMEOBOX 5 fused to the N-terminal half of YFP) (Arabidopsis thaliana) (UniProt Q8H1D2); assay: split reporter
T1 sequence: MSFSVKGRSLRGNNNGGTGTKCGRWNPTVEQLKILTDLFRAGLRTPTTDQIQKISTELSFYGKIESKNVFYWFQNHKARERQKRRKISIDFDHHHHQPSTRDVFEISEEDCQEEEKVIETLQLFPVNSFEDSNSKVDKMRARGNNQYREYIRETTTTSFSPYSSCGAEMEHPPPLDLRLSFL

[2] = target: T2, WOX5-YFP (Arabidopsis thaliana) (UniProt Q8H1D2); assay: co-IP
T2 sequence: T1 sequence

[3] = target: T3, MBP-WOX5 (Arabidopsis thaliana) (UniProt Q8H1D2); assay: pull-down
T3 sequence: T1 sequence

[4] = target: AtSK31-BD (Arabidopsis SHAGGY-like kinase 31, yeast two-hybrid fusion) (Arabidopsis thaliana); assay: two-hybrid
[5] = target: AtSK32-BD (Arabidopsis SHAGGY-like kinase 32, yeast two-hybrid fusion) (Arabidopsis thaliana); assay: two-hybrid

Molecule: AtPP2A-C3-YFPC (Arabidopsis thaliana) (enzyme)
binding [1]: binds

Molecule: AtPP2A-C4-YFPC (Arabidopsis thaliana) (enzyme)
binding [1]: binds

binding [2]: binds
Molecule: Flag-AtPP2A-C3 (Arabidopsis thaliana) (enzyme)

binding [2]: binds
Molecule: Flag-AtPP2A-C4 (Arabidopsis thaliana) (enzyme)

binding [3]: binds
Molecule: GST-AtPP2A-C3 (Arabidopsis thaliana) (enzyme)

binding [3]: binds
Molecule: GST-AtPP2A-C4 (Arabidopsis thaliana) (enzyme)

Molecule: HAM4-YFPC (HAIRY MERISTEM 4) (Arabidopsis thaliana)
binding [1]: binds

binding [4]: no binding | binding [5]: no binding
B1: WOX5-AD (WUSCHEL-RELATED HOMEOBOX 5, yeast two-hybrid fusion) (protein, UniProt Q8H1D2 1-182)
chain: T1 sequence
